Some entries share one result that the patent states for a list of compounds. At least one compound was matched to its structure with a doubt left.
System: Staphylococcus aureus NCTC 8325
Test: release of embedded staphylococci from human blood clots
Conditions: 250 μM compound, human whole blood clot, TPA, FIG. 3

SMILES: C[S+](C)CC(=O)CC[C@H](NC(=O)[C@H](Cc1ccccc1)NC(=O)OCc1ccccc1)C(=O)O [Compound 1, N-benzyloxycarbonyl-L-phenylalanyl-6-dimethylsulfonium-5-oxo-L-norleucine]
- increase in release of Staphylococcus aureus NCTC 8325 from the clots as compared to the control sample: ≥ 10 fold

— patent US20080299170A1, “Medical Devices and Coatings Therefor” (Aston University, priority 2005, published 2008)
